# Measured values reported in PubChem BioAssay AID463206 (Broad Institute, 2010).
# Some of the results follow. Measured potencies and affinities stand elsewhere. Entries without a call are filed as inconclusive in the source.
# Assay: inhibitors of cytokine-induced caspase-3/7 activity, dose response, orthogonal assay for beta-cell apoptosis protection project, INS-1E rat cells, luminescence (AID 463206)
# Conditions: INS-1E cytokine-induced caspase-3/7, Caspase-Glo luminescence, 48 h; at 26 µM (top of the series)
row,Compound,"activity change, negative = inhibition [%]"
1,O=C(CCCCCCCCCCC(=O)NCc1cccnc1)NCc1cccnc1,51.8
2,O=C(NCc1cccnc1)c1ccc(NC(=O)c2ccc(Br)cc2)cc1,48.3
3,COc1ccccc1-[n+]1c(C)cc(/C=C2\Sc3ccccc3N2C)cc1C,45.3
4,O=C(CCC1CCCC1)Nc1ccc(C(=O)NCc2cccnc2)cc1,46.8
5,O=C(COc1ccc([N+](=O)[O-])cc1)Nc1ccc(C(=O)NCc2cccnc2)cc1,46.9
6,CC(C)(C)c1ccc(C(=O)Nc2ccc(C(=O)NCc3cccnc3)cc2)cc1,49.6
7,O=C(NCc1cccnc1)c1ccc(NC(=O)c2ccc([N+](=O)[O-])cc2)cc1,49.1
8,O=C(NCc1cccnc1)c1ccc(NC(=O)c2cccc([N+](=O)[O-])c2)cc1,44.1
9,COc1ccc(Cc2nc(-c3ccc(NC(=O)c4cccnc4)cc3)no2)cc1,44.1
10,CCN1/C(=C/C(C)=C/c2sc3ccccc3[n+]2CC)Sc2ccccc21,56.6
11,O=C(NCCOc1cccnc1)c1ccc(OC2CCN(Cc3ccccn3)CC2)cc1,60.2
12,O=C(COc1ccc(Cl)cc1)Nc1ccc(C(=O)NCc2cccnc2)cc1,55
